The record followed here is the supplement of paper PMC4604168 (melanoma cell lines).

Common to all, as to test: cleaved PARP positive nuclei fraction relative to DMSO control; melanoma cells; higher = more apoptosis
Common to all, as to conditions: library dose: low library concentration; 72 h

For assay [1], the system named is MZ2-MEL.
In assay [2] the test system is MeWo.
Assay [3] deals with RPMI7951.
Assay [4] concerns RVH-421.
The test system of assay [5] is SkMel28.
For assay [6], the system named is SkMel2.
The subject of assay [7] is SkMel30.
Assay [8] relates to UACC62.
Assay [9] concerns WM115.
Assay [10] has as its system WM1716.
Assay [11] relates to WM1745.
For assay [12], the system named is WM3526.
The test system of assay [13] is WM3619.
Assay [14] has as its system WM451Lu.

The other results are listed elsewhere or left out. Repeats are few or missing, and single values can be far off.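 Cells were imaged in 1,536-well plates, and nuclei stained with an antibody against cleaved PARP were counted against all DNA-stained nuclei to give the apoptosis fraction. Screening doses were chosen to leave most cells alive, and resting and induced cleaved-PARP levels differ strongly between cell lines.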

As to `O=c1[nH]nc(Sc2ncc([N+](=O)[O-])s2)n1-c1ccc2c(c1)OCCO2` + Cn1c(Nc2ccc(C(F)(F)F)cc2)nc2cc(Oc3ccnc(-c4ncc(C(F)(F)F)[nH]4)c3)ccc21 [CHIR265] (first compound 0.2 µM, partner dose 0.08 µM), the “cleaved PARP positive nuclei fraction” value in assay [1] is 79%; in [2], 169%; in assay [3] it was 207%; in [4] it was 433%; in assay [5] it was 192%; in assay [6] it was 116%. In addition, the “cleaved PARP positive nuclei fraction” value in assay [7] worked out at 198%; in [8], 194%; in assay [9], 332%; in [10], 37.9%; in [11], 128%; in assay [12], 160%. The “cleaved PARP positive nuclei fraction” value in assay [13] was 98%; in assay [14], 47.5%.
Take `Cc1cc(Nc2cc(N3CCN(C)CC3)nc(Sc3ccc(NC(=O)C4CC4)cc3)n2)n[nH]1` [Tozasertib] + C[C@@H](N)c1ccc(C(=O)Nc2ccnc3[nH]ccc23)cc1 [RKI983] (first compound 0.006 µM, partner dose 0.4 µM): the “cleaved PARP positive nuclei fraction” value in assay [1] worked out at 140%; in assay [2] it was 148%; in [3], 118%; in assay [4] it was 143%; in assay [5], 160%; in assay [6] it was 34.1%. Further, the “cleaved PARP positive nuclei fraction” value in [7] is 52.7%; in [8], 70.5%; in assay [9], 86.2%; in assay [10], 247%; in [11] it was 93.6%; in assay [12] it was 73.4%. The results for the “cleaved PARP positive nuclei fraction” value in assay [13] and in [14] were 68.1% and 193%, respectively.
As to `N#CC[C@H](C1CCCC1)n1cc(-c2ncnc3[nH]ccc23)cn1` [ruxolitinib] + O=C(O)c1ccc2c(c1)nc(Nc1cccc(Cl)c1)c1ccncc12 [CX4945] (first compound 1 µM, partner dose 0.4 µM), the “cleaved PARP positive nuclei fraction” value in [1] is 170%; in [2] it was 109%; in assay [3], 80.4%; in assay [4] it was 98.7%; in assay [5] it was 81.3%; in [6], 185%. Also, the “cleaved PARP positive nuclei fraction” value stood at 42.8% in [7]; 219% in [8]; 55.3% in assay [9]; 67.7% in [10]; 92.4% in assay [11]; 39% in [12]. For the same compound, the results for the “cleaved PARP positive nuclei fraction” value in [13] and in assay [14] were 118% and 59.7%, respectively.
With `O=C(Nc1cc(C(F)(F)F)cc(C(F)(F)F)c1)c1cc(Cl)ccc1O` + NC(=O)c1ccc(N(C(N)=O)c2c(F)cccc2F)nc1-c1ccc(F)cc1F [VX702] (first compound 0.016 µM, partner dose 0.4 µM), the “cleaved PARP positive nuclei fraction” value in assay [1] came to 25.9%; in [2], 10.3%; in [3], 85.5%; in assay [4], 203%; in assay [5], 219%; in [6], 40.3%. For the same compound, the “cleaved PARP positive nuclei fraction” value in [7] was 63.6%; in assay [8], 101%; in assay [9], 106%; in assay [10], 61.2%; in assay [11], 95%; in assay [12], 39.6%. Further, the “cleaved PARP positive nuclei fraction” value in [13] was determined as 91.8%; in [14], 236%.
Consider `Cc1cc(Nc2cc(N3CCN(C)CC3)nc(Sc3ccc(NC(=O)C4CC4)cc3)n2)n[nH]1` [Tozasertib] + Cn1cnc2c(F)c(Nc3ccc(Br)cc3Cl)c(C(=O)NOCCO)cc21 [selumetinib] (first compound 0.006 µM, partner dose 0.015 µM), for which the “cleaved PARP positive nuclei fraction” value in assay [1] was 88.4%; in assay [2], 144%; in assay [3] it was 92.9%; in assay [4], 65.2%; in [5], 76.8%; in assay [6] it was 79.7%. Further, the “cleaved PARP positive nuclei fraction” value worked out at 64.8% in assay [7]; 122% in assay [8]; 52% in [9]; 144% in assay [10]; 104% in assay [11]; 100% in [12]. In addition, the “cleaved PARP positive nuclei fraction” value came out at 108% in assay [13] and 88.6% in assay [14].
Consider `O=C(/C=C/c1cccnc1)NCCCCC1CCN(C(=O)c2ccccc2)CC1` + C=C(c1ccc(C(=O)O)cc1)c1cc2c(cc1C)C(C)(C)CCC2(C)C [Bexarotene] (first compound 0.01 µM, partner dose 2 µM), for which the “cleaved PARP positive nuclei fraction” value was found to be 539% in assay [1]; 130% in assay [2]; 198% in assay [3]; 172% in [4]; 104% in assay [5]; 2080% in assay [6]. For the same compound, the “cleaved PARP positive nuclei fraction” value came to 30.4% in assay [7]; 231% in [8]; 73.4% in assay [9]; 41.4% in assay [10]; 89.6% in assay [11]; 121% in [12]. Besides, the “cleaved PARP positive nuclei fraction” value came to 148% in [13] and 197% in assay [14].
Take `Cc1cc(Nc2cc(N3CCN(C)CC3)nc(Sc3ccc(NC(=O)C4CC4)cc3)n2)n[nH]1` [Tozasertib] + C=C(c1ccc(C(=O)O)cc1)c1cc2c(cc1C)C(C)(C)CCC2(C)C [Bexarotene] (first compound 0.006 µM, partner dose 2 µM): the “cleaved PARP positive nuclei fraction” value was 157% in assay [1]; 24.6% in assay [2]; 216% in assay [3]; 300% in [4]; 104% in assay [5]; 38.1% in assay [6]. The “cleaved PARP positive nuclei fraction” value in [7] worked out at 131%; in assay [8] it was 82.1%; in [9] it was 51%; in [10] it was 51.3%; in assay [11] it was 94.6%; in assay [12] it was 46.2%. Further, the “cleaved PARP positive nuclei fraction” value in assay [13] is 110%; in assay [14] it was 34.8%.
For the compound `Cc1ccc(Nc2nccc(N(C)c3ccc4c(C)n(C)nc4c3)n2)cc1S(N)(=O)=O` [Pazopanib] + Cc1nc(Nc2ncc(C(=O)Nc3c(C)cccc3Cl)s2)cc(N2CCN(CCO)CC2)n1 [dasatanib] (first compound 0.4 µM, partner dose 0.004 µM), the “cleaved PARP positive nuclei fraction” value amounted to 184% in assay [1]; 85.6% in assay [2]; 125% in assay [3]; 52% in assay [4]; 64.5% in [5]; 165% in assay [6]. Also, the “cleaved PARP positive nuclei fraction” value in [7] was 38.6%; in assay [8], 122%; in [9] it was 65.2%; in assay [10], 171%; in assay [11], 134%; in assay [12], 50.4%. Moreover, the “cleaved PARP positive nuclei fraction” value is 127% in assay [13] and 116% in assay [14].
Regarding `Cc1ccc(Nc2nccc(N(C)c3ccc4c(C)n(C)nc4c3)n2)cc1S(N)(=O)=O` [Pazopanib] + Clc1ccc(Nc2nnc(Cc3ccncc3)c3ccccc23)cc1 [vatalanib] (first compound 0.4 µM, partner dose 2 µM), the “cleaved PARP positive nuclei fraction” value in assay [1] worked out at 121%; in assay [2], 95.4%; in assay [3] it was 110%; in assay [4], 132%; in [5], 74.7%; in assay [6] it was 77.5%. Also, the “cleaved PARP positive nuclei fraction” value amounted to 81.2% in assay [7]; 239% in [8]; 53.5% in [9]; 73.5% in [10]; 108% in assay [11]; 54.4% in [12]. In addition, the “cleaved PARP positive nuclei fraction” value in assay [13] worked out at 107%; in assay [14] it was 48.7%.
`O=C(Nc1cc(C(F)(F)F)cc(C(F)(F)F)c1)c1cc(Cl)ccc1O` + CS(=O)(=O)c1ccc(C(=O)Nc2ccc(Cl)c(-c3ccccn3)c2)c(Cl)c1 [vismodegib] (first compound 0.016 µM, partner dose 1 µM): the “cleaved PARP positive nuclei fraction” value in [1] was determined as 76.9%; in [2] it was 111%; in [3] it was 124%; in assay [4], 109%; in assay [5] it was 58.8%; in assay [6], 38.6%. Besides, the “cleaved PARP positive nuclei fraction” value in [7] came to 85.7%; in assay [8], 267%; in assay [9], 216%; in [10], 63.8%; in assay [11] it was 81.3%; in assay [12], 129%. Also, the “cleaved PARP positive nuclei fraction” value in assay [13] was determined as 76.2%; in assay [14], 104%.
